Results on six molecules are retold here after publication PMC7073115.

Results are given in words; binding and its absence hold for the method and conditions named. For part of these data: In cells and extracts the contact can be indirect. Some results given as binding are weak or reduced against the parent protein; the word gives no strength. For part of these data: Tags and fused reporters may be left off the sequences shown.

Assay [1] concerns the target T1, BAK1 kinase domain (yeast two-hybrid bait in pGBKT7) (Arabidopsis thaliana) (UniProt Q94F62).
T1 sequence: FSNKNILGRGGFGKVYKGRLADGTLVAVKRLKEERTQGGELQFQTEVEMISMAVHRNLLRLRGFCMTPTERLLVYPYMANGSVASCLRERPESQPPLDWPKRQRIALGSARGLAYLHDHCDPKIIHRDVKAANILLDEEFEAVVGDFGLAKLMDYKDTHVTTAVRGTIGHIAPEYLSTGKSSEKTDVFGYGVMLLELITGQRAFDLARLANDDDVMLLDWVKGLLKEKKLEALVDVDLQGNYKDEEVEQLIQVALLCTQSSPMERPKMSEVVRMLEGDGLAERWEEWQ
Description: two-hybrid; BAK1 kinase domain in pGBKT7 as bait, full-length CATs in pGADT7 as prey; AH109 yeast; growth on SD/-Ade/-His/-Leu/-Trp and X-galactosidase activity.

Assay [2] concerns the target T2, BAK1-HA (35S::BAK1-HA) (Arabidopsis thaliana) (UniProt Q94F62).
T2 sequence: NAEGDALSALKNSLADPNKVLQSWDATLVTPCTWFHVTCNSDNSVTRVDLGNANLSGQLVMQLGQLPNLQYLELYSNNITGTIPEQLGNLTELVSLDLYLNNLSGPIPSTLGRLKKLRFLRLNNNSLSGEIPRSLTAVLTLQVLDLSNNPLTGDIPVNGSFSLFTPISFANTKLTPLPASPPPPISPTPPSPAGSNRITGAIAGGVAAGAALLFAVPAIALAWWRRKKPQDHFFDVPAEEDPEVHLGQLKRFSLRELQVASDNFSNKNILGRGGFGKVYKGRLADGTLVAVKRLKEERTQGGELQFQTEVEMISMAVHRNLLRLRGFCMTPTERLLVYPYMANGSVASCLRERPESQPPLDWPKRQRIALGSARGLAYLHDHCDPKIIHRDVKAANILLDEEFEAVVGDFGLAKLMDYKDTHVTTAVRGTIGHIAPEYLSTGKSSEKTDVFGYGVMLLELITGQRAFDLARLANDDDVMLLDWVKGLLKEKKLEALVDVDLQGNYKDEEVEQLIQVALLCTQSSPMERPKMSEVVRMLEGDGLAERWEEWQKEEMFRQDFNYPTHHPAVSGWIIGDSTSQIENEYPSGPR
Description: co-IP; BAK1-HA and CAT1/2/3-MYC co-expressed in N. benthamiana leaves with MG132 (25 uM); IP with anti-HA affinity matrix, Western blot with anti-MYC antibody. A general note: A western blot detects proteins with antibodies after separation by electrophoresis.

Assay [3] deals with T3, BAK1-CYFP (Arabidopsis thaliana) (UniProt Q94F62).
T3 sequence: T2 sequence
Description: split reporter; BiFC: BAK1-CYFP and CATs-NYFP co-expressed with P19 in N. benthamiana leaves; YFP imaged by confocal microscopy 3 days after infiltration.

B1: Catalase 2 (CAT2), yeast two-hybrid prey in pGADT7 (enzyme, UniProt P25819 1-492)
chain: MDPYKYRPASSYNSPFFTTNSGAPVWNNNSSMTVGPRGPILLEDYHLVEKLANFDRERIPERVVHARGASAKGFFEVTHDISNLTCADFLRAPGVQTPVIVRFSTVIHERGSPETLRDPRGFAVKFYTREGNFDLVGNNFPVFFIRDGMKFPDMVHALKPNPKSHIQENWRILDFFSHHPESLNMFTFLFDDIGIPQDYRHMDGSGVNTYMLINKAGKAHYVKFHWKPTCGVKSLLEEDAIRVGGTNHSHATQDLYDSIAAGNYPEWKLFIQIIDPADEDKFDFDPLDVTKTWPEDILPLQPVGRMVLNKNIDNFFAENEQLAFCPAIIVPGIHYSDDKLLQTRVFSYADTQRHRLGPNYLQLPVNAPKCAHHNNHHEGFMNFMHRDEEVNYFPSRYDQVRHAEKYPTPPAVCSGKRERCIIEKENNFKEPGERYRTFTPERQERFIQRWIDALSDPRITHEIRSIWISYWSQADKSLGQKLASRLNVRPSI
Turning to B1, the binding result in assay [1] is “binds”.

B2: CAT2-MYC (35S::CAT2-MYC) (enzyme, UniProt P25819 1-492)
chain: B1 chain
For the molecule B2, the binding result in assay [2] is listed as “binds”.

B3: CAT2-NYFP (enzyme, UniProt P25819 1-492)
chain: B1 chain
Consider B3, for which the binding result in assay [3] was “binds”.

B4: CAT3-NYFP (enzyme, UniProt Q42547 1-492)
chain: MDPYKYRPSSAYNAPFYTTNGGAPVSNNISSLTIGERGPVLLEDYHLIEKVANFTRERIPERVVHARGISAKGFFEVTHDISNLTCADFLRAPGVQTPVIVRFSTVVHERASPETMRDIRGFAVKFYTREGNFDLVGNNTPVFFIRDGIQFPDVVHALKPNPKTNIQEYWRILDYMSHLPESLLTWCWMFDDVGIPQDYRHMEGFGVHTYTLIAKSGKVLFVKFHWKPTCGIKNLTDEEAKVVGGANHSHATKDLHDAIASGNYPEWKLFIQTMDPADEDKFDFDPLDVTKIWPEDILPLQPVGRLVLNRTIDNFFNETEQLAFNPGLVVPGIYYSDDKLLQCRIFAYGDTQRHRLGPNYLQLPVNAPKCAHHNNHHEGFMNFMHRDEEINYYPSKFDPVRCAEKVPTPTNSYTGIRTKCVIKKENNFKQAGDRYRSWAPDRQDRFVKRWVEILSEPRLTHEIRGIWISYWSQADRSLGQKLASRLNVRPSI
Turning to B4, the binding entry in assay [3] is reported as “binds”.

B5: Catalase 3 (CAT3), yeast two-hybrid prey in pGADT7 (enzyme, UniProt Q42547 1-492)
chain: B4 chain
For the molecule B5, the binding entry in assay [1] is on record as “binds”.

B6: CAT3-MYC (35S::CAT3-MYC) (enzyme, UniProt Q42547 1-492)
chain: B4 chain
As for B6, the binding entry in assay [2] is “binds”.
